Data: PubChem BioAssay AID2685 (National Center for Advancing Translational Sciences (NCATS), 2010)
The other results are listed elsewhere or left out. Shown are side measurements of this screen, not its main read-out; they come without a call. Most of these compounds were active or inconclusive in the main read-out, so they are no random draw. Potencies come from curve fits of mixed quality, noted in brackets.

Assay: qHTS Assay for Lipid Storage Modulators in Drosophila S3 Cells;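 for cell number change: cells counted by Cell Tracker Red CMTPX staining in the red channel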
Details: BODIPY lipid droplet fluorescence, 18-24 h; for cell number change: measured here: cell count max response, cells fed with added oleic acid
Method in brief: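 Drosophila S3 cells got compounds at several concentrations plus oleic acid (400 uM solution). Laser-scanning cytometry with 488 nm excitation read lipid droplets at 500-530 nm and cells at 575-640 nm. Percent activity was relative to 20 uM Triacsin C.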

[1] = measured here: cell number channel AC50, cells fed with added oleic acid
[2] = measured here: lipid fluorescence (Fed channel) AC50, cells fed with added oleic acid

Row | Structure (SMILES) | cell number change [%] | AC50 [1] | AC50 [2]
1 | CCC1CCc2sc(C(=O)N(C)CC(=O)Nc3ccc(OC)cc3)cc2C1 (stereo not drawn) | -37.5 | 29.1 µM [falling, partial curve, poor fit] | 
2 | CN(CC(=O)Nc1nc2ccccc2s1)S(=O)(=O)c1ccc(Cl)cc1 |  | 1.84 µM [rising, partial curve] | 6.51 µM [rising, partial curve]
3 | O=C(Cc1ccc(F)cc1)Nc1cccc2cccnc12 | 33 | 5.8 µM [rising, partial curve] | 
4 | COC(=O)CC1C(=O)NCCN1C(=O)c1cc(OC)c(OC)cc1OC (stereo not drawn) | 1.42 |  | 
5 | CCC1(CC)N([O-])C(C)=C(c2ccccc2)[N+]1=O | -11.9 |  | 0.731 µM [falling, full curve, poor fit]
6 | CCN(c1ccccc1C)S(=O)(=O)c1nnc(NC(=O)c2ccco2)s1 | -27.1 |  | 6.51 µM [falling, partial curve]
7 | COC(=O)c1cccc(NC(=O)Nc2ccc(Cl)c(Cl)c2)c1 | -11.4 |  | 20.6 µM [rising, single point]
8 | C/C=C(/C)C(=O)OC(C)(C)[C@@H]1Cc2c(ccc3ccc(=O)oc23)O1 | 19 |  | 9.2 µM [rising, partial curve]
9 | CC(C)(C)C(=O)N1CCC(O)(CS(=O)(=O)Cc2ccccc2Cl)CC1 |  | 1.84 µM [rising, partial curve, poor fit] | 5.8 µM [rising, partial curve]
10 | COCC(=O)Nc1ccc2nc3n(c(=O)c2c1)CCCCC3 | -2.99 |  | 
11 | CCCC(=O)Nn1cnc2c(c1=O)C1(CCCCC1)Cc1ccccc1-2 | 1.12 |  | 
12 | O=C(NCCc1csc(-c2cccnc2)n1)c1ccc(Br)o1 |  | 0.116 µM [rising, full curve, poor fit] | 
13 | Cc1ccc(NC(=S)NC(=O)c2ccc(-c3ccccc3)cc2)c(C)c1 | -2.45 |  | 
14 | CCCCCCNC(=O)N[C@H](C(=O)NCCC[C@H]1CN2C(=NC[C@H]2C)N1CCC(c1ccccc1)c1ccccc1)C(C)O (stereo partly drawn) | -21.2 | 2.31 µM [falling, full curve, poor fit] | 
15 | Cc1nnc2sc(SCC(=O)Nc3cccc(Cl)c3)nn2c1=O | -7.36 | 1.46 µM [falling, full curve, poor fit] | 
16 | CC1CN(C(=O)c2cnn3c(C(F)F)cc(-c4ccccc4)nc23)CC(C)O1 (stereo not drawn) | 34.6 | 1.16 µM [rising, partial curve] | 4.61 µM [rising, partial curve]
17 | Cc1ccc(C2(c3ccc(C)cc3)CC2C(=O)NC(C)C)cc1 (stereo not drawn) | 16.2 |  | 
18 | O=C1CN(C(=O)CSc2nc3ccccc3c(=O)n2Cc2ccc(F)cc2)c2ccccc2N1 | 1.2 |  | 20.6 µM [falling, single point]
19 | O=C(Nc1cnn(Cc2ccc(F)cc2)c1)c1cc(-c2cccs2)on1 | -59.8 | 20.6 µM [falling, single point] | 20.6 µM [falling, single point]

Row | Structure (SMILES) | cell number change [%] | AC50 [1] | AC50 [2]
20 | COc1ccc(NC(=O)C(=O)NCCCO)cc1Cl |  |  | 29.1 µM [rising, single point]
21 | C=CCOc1ccc(C(=O)NC2CCCCC2)cc1 | 34.9 | 4.11 µM [rising, partial curve] | 
22 | C/C(=N\NS(=O)(=O)c1ccccc1)c1cccc(NC(=O)c2cccc(Cl)c2)c1 | -18.4 |  | 29.1 µM [falling, single point]
23 | O=C(Nc1cccnc1)c1ccc(Cl)c(S(=O)(=O)N2CCCC2)c1 | -34.2 | 1.16 µM [falling, full curve] | 
24 | C=CCn1c(O)c(C(CC)=NCc2cccnc2)c(=O)[nH]c1=O | -9.15 |  | 7.31 µM [rising, partial curve]
25 | CC(=O)Nc1ccc(S(=O)(=O)NNC2=NS(=O)(=O)c3ccccc32)cc1 | -43.7 | 18.4 µM [falling, single point] | 23.1 µM [falling, single point]
26 | Cc1nc2ccc(NC(=O)Cc3c(F)cccc3Cl)cc2s1 | 19.1 |  | 
27 | Cc1ccc(NS(=O)(=O)c2ccc(Cl)c(NC(=S)NC(=O)C3CCCCC3)c2)cc1Cl | -68.8 | 0.366 µM [falling, partial curve, poor fit] | 5.8 µM [falling, partial curve]
28 | O=C(Cn1ccc(NC(=O)OCc2ccccc2)nc1=O)NCc1nc2ccccc2[nH]1 | -2.71 |  | 18.4 µM [falling, single point]
29 | COc1ccc(OCCC(=O)NCC23CC4CC(CC(C4)C2)C3)cc1 | 94.8 | 0.092 µM [falling, full curve, poor fit] | 0.092 µM [falling, full curve, poor fit]
30 | COc1ccccc1-c1nnc(NC(=O)CCS(=O)(=O)c2ccccc2)o1 | 16.8 |  | 29.1 µM [falling, partial curve, poor fit]
31 | O=C(/C=C/c1ccccc1)N1CCN(S(=O)(=O)c2ccc(F)cc2)CC1 | 20.8 | 0.13 µM [rising, full curve, poor fit] | 0.164 µM [rising, full curve]
32 | FC(F)Oc1ccc(NC(=S)N2CCc3ccccc32)cc1 | 74.5 | 0.291 µM [rising, full curve] | 5.8 µM [rising, full curve]
33 | C=CCN(CC=C)C(=O)c1ccc2nc(Cc3ccc(OC)c(OC)c3)oc2c1 | -45.4 | 7.31 µM [falling, partial curve] | 
34 | Clc1ccc(-n2ncc3c(NCCCn4ccnc4)ncnc32)cc1 |  |  | 0.366 µM [rising, partial curve, poor fit]
35 | CS(=O)(=O)N1CCN(c2ccccc2NC(=O)Cc2ccccc2)CC1 | 11.5 |  | 3.66 µM [rising, single point]
36 | COc1ccc(/C=N/NC(=O)C(C)n2cnc3ccccc3c2=O)cc1OC (stereo not drawn) | 4.6 |  | 0.291 µM [rising, full curve, poor fit]
37 | CC(OC(=O)CCN1C(=O)c2cccc([N+](=O)[O-])c2C1=O)C(=O)Nc1cc(Cl)cc(Cl)c1 (stereo not drawn) | -52.3 | 2.59 µM [falling, full curve] | 2.06 µM [falling, full curve]

Rewritten with tabs: part of the list above.
Row	Structure (SMILES)	cell number change [%]	AC50 [1]	AC50 [2]
20	COc1ccc(NC(=O)C(=O)NCCCO)cc1Cl			29.1 µM [rising, single point]
33	C=CCN(CC=C)C(=O)c1ccc2nc(Cc3ccc(OC)c(OC)c3)oc2c1	-45.4	7.31 µM [falling, partial curve]	
